Data published in patent publication US7402310B2, “Deoxyribonuclease, gene encoding same and use thereof” (priority 2001, dated 2008).

Tested on: HeLa S3 cells
Assay: Intracellular/extracellular presence ratio in transfected HeLa S3 cells (Western blot)
Type: cell-based, human
Conditions: 48 hr after transfection

B1: DLAD: novel acid DNase cleaving DNA independently from divalent cations; mouse, amino acid Nos. 1 to 332 of SEQ ID NO: 1 (protein, listed as Mus musculus)
chain: MTAKPLRTVLSLLFFALSGVLGTPEISCRNEYGEAVDWFIFYKLPKRTSKASEEAGLQYLYLDSTRQTWNKSLYLINSTRSALGRTLQHLYDTHNSTNDTAYLIYNDGVPGSVNYSRQYGHAKGLLVWNRTQGFWLIHSVPKFPPVHGYEYPTSGRRYGQTGICITFGYSQFEEIDFQLLVLQPNIYSCFIPSTFHWKLIYMPRMCANSSSLKIPVRYLAELHSAQGLNFVHFAKSSFYTDDIFTGWIAQKLKTHLLAQTWQKKKQELPSNCSLPYHVYNIKSIGVTSKSYFSSRQDHSKWCVSIKGSANRWTCIGDLNRSLHQALRGGGFI
B1 was tested, and the “Share of protein in extracellular fraction (medium)” value was “about 30%” and the “Share of protein retained within the cells” value was “about 70%”.
